According to PMC9482615:
No constants are given. Whether binding was seen depends on the method and setting. Binding seen in cells or lysates may run through a third protein. Some binding calls cover weakened binding; strength is not graded here.

Chains of the proteins cited; added tags and fusions are not shown. Lines headed by an entry give the natural chain unless they say otherwise; changes in a name come on top. A line that says so, or that is headed by a name, gives the form on record, which may keep a tag or linker. Residues count along the entry.
UniProt Q15672: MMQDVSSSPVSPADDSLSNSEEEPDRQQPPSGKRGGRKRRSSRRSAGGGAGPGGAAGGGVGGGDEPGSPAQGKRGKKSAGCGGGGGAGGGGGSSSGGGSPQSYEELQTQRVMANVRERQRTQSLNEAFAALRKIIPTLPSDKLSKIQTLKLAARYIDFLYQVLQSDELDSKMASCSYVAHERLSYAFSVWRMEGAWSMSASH
UniProt O43791: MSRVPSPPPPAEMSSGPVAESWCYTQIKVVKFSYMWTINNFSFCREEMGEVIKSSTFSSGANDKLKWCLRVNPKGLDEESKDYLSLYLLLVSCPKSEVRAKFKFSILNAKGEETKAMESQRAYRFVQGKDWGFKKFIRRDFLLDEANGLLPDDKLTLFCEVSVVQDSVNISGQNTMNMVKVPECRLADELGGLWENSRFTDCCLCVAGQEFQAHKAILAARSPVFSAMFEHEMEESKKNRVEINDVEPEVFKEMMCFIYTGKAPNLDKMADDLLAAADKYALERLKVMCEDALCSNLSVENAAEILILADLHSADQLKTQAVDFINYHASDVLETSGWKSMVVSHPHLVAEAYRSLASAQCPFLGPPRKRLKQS
GST-tagged N-terminal deletion mutant of SPOP (GST-SPOPC): residues 173-297 of O43791

Key:
TWIST1, endogenous = TWIST1, endogenous (UniProt Q15672); assay: co-IP; endogenous proteins; IP with a TWIST1 antibody or an SPOP antibody, then western blotting; cell line not stated
[1] = target: GST-tagged N-terminal deletion mutant of SPOP (GST-SPOPC) (UniProt O43791); assay: pull-down; GST-SPOPN or GST-SPOPC on glutathione-sepharose 4B beads; proteins on the beads detected by western blotting; source of TWIST1 not stated
[2] = target: speckle-type POZ protein (SPOP), endogenous (UniProt O43791); assay: co-IP; endogenous proteins; IP with a TWIST1 antibody or an SPOP antibody, then western blotting; cell line not stated

## speckle-type POZ protein (SPOP), endogenous (from UniProt O43791 1-374)
TWIST1, endogenous
  binding: binds

## TWIST1 used in the GST pull-down (from UniProt Q15672 1-202)
[1]
  binding: no binding

## TWIST1, endogenous (from UniProt Q15672 1-202)
[2]
  binding: binds
